# The other results are listed elsewhere or left out.
# How the values were obtained:
# Experiment in all cases: glycan array binding signal (z-score within array); higher = stronger binding
# Conditions in all cases: glycan notation: IUPAC condensed, linker removed
# [1] = target: Neu5Ac(a2-3)Gal(b1-4)GlcNAc(b1-3)Gal(b1-4)GlcNAc(b1-2)Man(a1-3)[Neu5Ac(a2-3)Gal(b1-4)GlcNAc(b1-3)Gal(b1-4)GlcNAc(b1-2)Man(a1-6)]Man(b1-4)GlcNAc(b1-4)GlcNAc
# Procedure, shortened: (§1)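 Arrays were curated from the Consortium for Functional Glycomics database, 3228 in total, and kept only where the protein sequence was available. Binding is expressed as a within-array Z-score. This score was averaged across arrays of the same protein sequence at different concentrations or buffers and across linkers, and negative values can be read as non-binding.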
# [2] = target: Neu5Ac(a2-3)Gal(b1-4)GlcNAc(b1-3)Gal(b1-4)GlcNAc(b1-3)Gal(b1-4)GlcNAc
# Procedure, shortened: as §1
# [3] = target: Neu5Ac(a2-3)Gal(b1-4)GlcNAc(b1-3)Gal(b1-4)GlcNAc(b1-3)Gal(b1-4)GlcNAc(b1-2)Man(a1-3)[Neu5Ac(a2-3)Gal(b1-4)GlcNAc(b1-3)Gal(b1-4)GlcNAc(b1-3)Gal(b1-4)GlcNAc(b1-2)Man(a1-6)]GalNAc
# Procedure, shortened: as §1
# [4] = target: Neu5Ac(a2-3)Gal(b1-4)GlcNAc(b1-3)Gal(b1-4)GlcNAc(b1-3)GalNAc
# Procedure, shortened: as §1
# [5] = target: Neu5Ac(a2-3)Gal(b1-4)GlcNAc(b1-3)Gal(b1-4)GlcNAc(b1-3)[Neu5Ac(a2-3)Gal(b1-4)GlcNAc(b1-3)Gal(b1-4)GlcNAc(b1-6)]GalNAc
# Procedure, shortened: as §1
# [6] = target: Neu5Ac(a2-3)Gal(b1-4)GlcNAc(b1-3)Gal(b1-4)GlcNAc(b1-6)[Gal(b1-3)]GalNAc
# Procedure, shortened: as §1
# [7] = target: Neu5Ac(a2-3)Gal(b1-4)GlcNAc(b1-3)Gal(b1-4)[Fuc(a1-3)]GlcNAc
# Procedure, shortened: as §1
# [8] = target: Neu5Ac(a2-3)Gal(b1-4)GlcNAc(b1-3)GalNAc
# Procedure, shortened: as §1
# [9] = target: Neu5Ac(a2-3)Gal(b1-4)GlcNAc(b1-3)[Neu5Ac(a2-3)Gal(b1-4)GlcNAc(b1-6)]GalNAc
# Procedure, shortened: as §1
# [10] = target: Neu5Ac(a2-3)Gal(b1-4)GlcNAc(b1-6)GalNAc
# Procedure, shortened: as §1
# [11] = target: Neu5Ac(a2-3)Gal(b1-4)GlcNAc(b1-6)[Gal(b1-3)]GalNAc
# Procedure, shortened: as §1
# [12] = target: Neu5Ac(a2-3)Gal(b1-4)GlcNAc(b1-6)[Neu5Ac(a2-3)Gal(b1-3)]GalNAc
# Procedure, shortened: as §1
# [13] = target: Neu5Ac(a2-3)Gal(b1-4)GlcNAc6S
# Procedure, shortened: as §1
# [14] = target: Neu5Ac(a2-3)Gal(b1-4)[Fuc(a1-3)]GlcNAc
# Procedure, shortened: as §1
# [15] = target: Neu5Ac(a2-3)Gal(b1-4)[Fuc(a1-3)]GlcNAc(b1-2)Man
# Procedure, shortened: as §1
# [16] = target: Neu5Ac(a2-3)Gal(b1-4)[Fuc(a1-3)]GlcNAc(b1-3)Gal
# Procedure, shortened: as §1
# [17] = target: Neu5Ac(a2-3)Gal(b1-4)[Fuc(a1-3)]GlcNAc(b1-3)Gal(b1-4)GlcNAc
# Procedure, shortened: as §1
# [18] = target: Neu5Ac(a2-3)Gal(b1-4)[Fuc(a1-3)]GlcNAc(b1-3)Gal(b1-4)[Fuc(a1-3)]GlcNAc(b1-3)Gal(b1-4)[Fuc(a1-3)]GlcNAc
# Procedure, shortened: as §1
# [19] = target: Neu5Ac(a2-3)Gal(b1-4)[Fuc(a1-3)]GlcNAc(b1-3)GalNAc
# Procedure, shortened: as §1
# [20] = target: Neu5Ac(a2-3)Gal(b1-4)[Fuc(a1-3)]GlcNAc(b1-6)[Gal(b1-3)]GalNAc
# Procedure, shortened: as §1
# [21] = target: Neu5Ac(a2-3)Gal(b1-4)[Fuc(a1-3)]GlcNAc(b1-6)[Neu5Ac(a2-3)Gal(b1-3)]GalNAc
# Procedure, shortened: as §1
# [22] = target: Neu5Ac(a2-3)Gal(b1-4)[Fuc(a1-3)]GlcNAc6S
# Procedure, shortened: as §1
# [23] = target: Neu5Ac(a2-3)Gal6S(b1-4)GlcNAc
# Procedure, shortened: as §1
# [24] = target: Neu5Ac(a2-3)Gal6S(b1-4)[Fuc(a1-3)]GlcNAc
# Procedure, shortened: as §1
# Neu5Ac(a2-3)GalNAc = target: Neu5Ac(a2-3)GalNAc
# Procedure, shortened: as §1
# [25] = target: Neu5Ac(a2-3)GalNAc(b1-4)GlcNAc
# Procedure, shortened: as §1
# [26] = target: Neu5Ac(a2-3)[GalNAc(b1-4)]Gal(b1-4)Glc
# Procedure, shortened: as §1
# [27] = target: Neu5Ac(a2-3)[GalNAc(b1-4)]Gal(b1-4)GlcNAc
# Procedure, shortened: as §1
# [28] = target: Neu5Ac(a2-3)[GalNAc(b1-4)]Gal(b1-4)GlcNAc(b1-3)GalNAc
# Procedure, shortened: as §1
# [29] = target: Neu5Ac(a2-3)[Neu5Ac(a2-6)]GalNAc
# Procedure, shortened: as §1
# Neu5Ac(a2-6)Gal = target: Neu5Ac(a2-6)Gal
# Procedure, shortened: as §1
# [30] = target: Neu5Ac(a2-6)Gal(b1-3)GlcNAc(b1-3)[Gal(b1-4)GlcNAc(b1-6)]Gal(b1-4)Glc
# Procedure, shortened: as §1
# Neu5Ac(a2-6)Gal(b1-4)Glc = target: Neu5Ac(a2-6)Gal(b1-4)Glc
# Procedure, shortened: as §1
# [31] = target: Neu5Ac(a2-6)Gal(b1-4)GlcNAc
# Procedure, shortened: as §1
# [32] = target: Neu5Ac(a2-6)Gal(b1-4)GlcNAc(b1-2)Man
# Procedure, shortened: as §1
# [33] = target: Neu5Ac(a2-6)Gal(b1-4)GlcNAc(b1-2)Man(a1-3)Man(b1-4)GlcNAc(b1-4)GlcNAc
# Procedure, shortened: as §1
# [34] = target: Neu5Ac(a2-6)Gal(b1-4)GlcNAc(b1-2)Man(a1-3)[Gal(b1-4)GlcNAc(b1-2)Man(a1-6)]Man(b1-4)GlcNAc(b1-4)GlcNAc
# Procedure, shortened: as §1
# [35] = target: Neu5Ac(a2-6)Gal(b1-4)GlcNAc(b1-2)Man(a1-3)[GlcNAc(b1-2)Man(a1-6)]Man(b1-4)GlcNAc(b1-4)GlcNAc
# Procedure, shortened: as §1
# [36] = target: Neu5Ac(a2-6)Gal(b1-4)GlcNAc(b1-2)Man(a1-3)[GlcNAc(b1-2)Man(b1-4)GlcNAc(b1-2)Man(a1-6)]Man(b1-4)GlcNAc(b1-4)GlcNAc
# Procedure, shortened: as §1
# [37] = target: Neu5Ac(a2-6)Gal(b1-4)GlcNAc(b1-2)Man(a1-3)[GlcNAc(b1-4)][Neu5Ac(a2-6)Gal(b1-4)GlcNAc(b1-2)Man(a1-6)]Man(b1-4)GlcNAc(b1-4)GlcNAc
# Procedure, shortened: as §1
# [38] = target: Neu5Ac(a2-6)Gal(b1-4)GlcNAc(b1-2)Man(a1-3)[Man(a1-6)]Man(b1-4)GlcNAc(b1-4)GlcNAc
# Procedure, shortened: as §1
# [39] = target: Neu5Ac(a2-6)Gal(b1-4)GlcNAc(b1-2)Man(a1-3)[Neu5Ac(a2-3)Gal(b1-4)GlcNAc(b1-2)Man(a1-6)]Man(b1-4)GlcNAc(b1-4)GlcNAc
# Procedure, shortened: as §1
# [40] = target: Neu5Ac(a2-6)Gal(b1-4)GlcNAc(b1-2)Man(a1-3)[Neu5Ac(a2-6)Gal(b1-4)GlcNAc(b1-2)Man(a1-6)]Man(b1-4)GlcNAc(b1-4)GlcNAc
# Procedure, shortened: as §1
# [41] = target: Neu5Ac(a2-6)Gal(b1-4)GlcNAc(b1-2)Man(a1-3)[Neu5Ac(a2-6)Gal(b1-4)GlcNAc(b1-2)Man(a1-6)]Man(b1-4)GlcNAc(b1-4)[Fuc(a1-6)]GlcNAc
# Procedure, shortened: as §1
# [42] = target: Neu5Ac(a2-6)Gal(b1-4)GlcNAc(b1-2)Man(a1-6)Man(b1-4)GlcNAc(b1-4)GlcNAc
# Procedure, shortened: as §1
# [43] = target: Neu5Ac(a2-6)Gal(b1-4)GlcNAc(b1-2)Man(a1-6)[Gal(b1-4)GlcNAc(b1-2)Man(a1-3)]Man(b1-4)GlcNAc(b1-4)GlcNAc
# Procedure, shortened: as §1
# [44] = target: Neu5Ac(a2-6)Gal(b1-4)GlcNAc(b1-2)Man(a1-6)[GlcNAc(b1-2)Man(a1-3)]Man(b1-4)GlcNAc(b1-4)GlcNAc
# Procedure, shortened: as §1
# [45] = target: Neu5Ac(a2-6)Gal(b1-4)GlcNAc(b1-2)Man(a1-6)[Man(a1-3)]Man(b1-4)GlcNAc(b1-4)GlcNAc
# Procedure, shortened: as §1
# [46] = target: Neu5Ac(a2-6)Gal(b1-4)GlcNAc(b1-2)[Neu5Ac(a2-6)Gal(b1-4)GlcNAc(b1-4)]Man(a1-3)[GlcNAc(b1-4)][Neu5Ac(a2-6)Gal(b1-4)GlcNAc(b1-2)[Neu5Ac(a2-6)Gal(b1-4)GlcNAc(b1-6)]Man(a1-6)]Man(b1-4)GlcNAc(b1-4)GlcNAc
# Procedure, shortened: as §1
# [47] = target: Neu5Ac(a2-6)Gal(b1-4)GlcNAc(b1-2)[Neu5Ac(a2-6)Gal(b1-4)GlcNAc(b1-4)]Man(a1-3)[GlcNAc(b1-4)][Neu5Ac(a2-6)Gal(b1-4)GlcNAc(b1-4)Man(a1-6)]Man(b1-4)GlcNAc(b1-4)GlcNAc
# Procedure, shortened: as §1
# [48] = target: Neu5Ac(a2-6)Gal(b1-4)GlcNAc(b1-2)[Neu5Ac(a2-6)Gal(b1-4)GlcNAc(b1-6)]Man(a1-6)[Neu5Ac(a2-6)Gal(b1-4)GlcNAc(b1-2)Man(a1-3)][GlcNAc(b1-4)]Man(b1-4)GlcNAc(b1-4)GlcNAc
# Procedure, shortened: as §1
binder,measurement,setting,value
KILRGVCKKIMRTFLRRISKDILTGKK [NK2 (Sus scrofa)],glycan array binding signal (z-score),[1],-0.106
same,glycan array binding signal (z-score),[2],-0.106
same,glycan array binding signal (z-score),[3],-0.628
same,glycan array binding signal (z-score),[4],2.37
same,glycan array binding signal (z-score),[5],-1.13
same,glycan array binding signal (z-score),[6],0.263
same,glycan array binding signal (z-score),[7],0.392
same,glycan array binding signal (z-score),[8],-0.302
same,glycan array binding signal (z-score),[9],0.137
same,glycan array binding signal (z-score),[10],1.14
same,glycan array binding signal (z-score),[11],0.125
same,glycan array binding signal (z-score),[12],0.062
same,glycan array binding signal (z-score),[13],1.75
same,glycan array binding signal (z-score),[14],-0.977
same,glycan array binding signal (z-score),[15],0.6
same,glycan array binding signal (z-score),[16],-0.39
same,glycan array binding signal (z-score),[17],0.415
same,glycan array binding signal (z-score),[18],-0.611
same,glycan array binding signal (z-score),[19],-0.396
same,glycan array binding signal (z-score),[20],1.03
same,glycan array binding signal (z-score),[21],0.602
same,glycan array binding signal (z-score),[22],0.787
same,glycan array binding signal (z-score),[23],1.26
same,glycan array binding signal (z-score),[24],-0.104
same,glycan array binding signal (z-score),Neu5Ac(a2-3)GalNAc,-0.422
same,glycan array binding signal (z-score),[25],0.436
same,glycan array binding signal (z-score),[26],-0.813
same,glycan array binding signal (z-score),[27],-0.876
same,glycan array binding signal (z-score),[28],0.715
same,glycan array binding signal (z-score),[29],0.24
same,glycan array binding signal (z-score),Neu5Ac(a2-6)Gal,-0.071
same,glycan array binding signal (z-score),[30],-0.293
same,glycan array binding signal (z-score),Neu5Ac(a2-6)Gal(b1-4)Glc,0.162
same,glycan array binding signal (z-score),[31],-0.187
same,glycan array binding signal (z-score),[32],-0.289
same,glycan array binding signal (z-score),[33],0.355
same,glycan array binding signal (z-score),[34],0.509
same,glycan array binding signal (z-score),[35],-0.169
same,glycan array binding signal (z-score),[36],-0.471
same,glycan array binding signal (z-score),[37],-0.061
same,glycan array binding signal (z-score),[38],1.38
same,glycan array binding signal (z-score),[39],1.4
same,glycan array binding signal (z-score),[40],-0.014
same,glycan array binding signal (z-score),[41],-0.062
same,glycan array binding signal (z-score),[42],0.51
same,glycan array binding signal (z-score),[43],-0.062
same,glycan array binding signal (z-score),[44],0.794
same,glycan array binding signal (z-score),[45],-0.656
same,glycan array binding signal (z-score),[46],1.34
same,glycan array binding signal (z-score),[47],1.24
same,glycan array binding signal (z-score),[48],0.345

# — the supplement of paper PMC8728848
